Measurements published in PubChem BioAssay AID463205 (Broad Institute, 2010).
About 20 (0.8%) of roughly 2,400 compounds were called active.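 The calls were made as follows: active = AC50 no more than ten times the highest tested concentration, or full inhibition at every dose giving a flat fit (cut at about 30 µM in these data); inconclusive = flat fit with activity between 30% and 70%, or poor-quality invalid fit; inactive = AC50 more than ten times the top tested dose.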 The list shows a part of the results.

assay: inhibitors of ADP-Glo detection reagents, dose response, artefact control for GSK-3a inhibitor project, biochemical, luminescence, cell-free, homogeneous (AID 463205); settings: 5 uM ADP;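 also: kinase-free counter-screen against the ADP-Glo detection reagents only; potency is for inhibitors that reduce the luminescence signal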

SMILES | AC50
CN(Cc1nc2c(s1)CCCC2)C(=O)CCc1nnc(-c2ccccc2)o1 | inactive: > 30 µM
CCOC(=O)c1nnn(-c2nonc2-n2cccc2)c1C | inactive: > 30 µM
CCc1cc(C(=O)OC)c(NC(=O)CN2CCN(C(=O)c3ccco3)CC2)s1 | inactive: > 30 µM
O=C(Nc1ccccc1-c1nnc(SCc2ccccc2Cl)o1)c1ccccc1 | inactive: > 30 µM
Cc1ccc(S(=O)(=O)N2C(=O)/C(=C3\SC(=S)NC3=O)c3ccccc32)cc1 | inactive: > 30 µM
COCCCNc1nc(N)c([N+](=O)[O-])c(N2CCCCCC2)n1 | inactive: > 30 µM
COc1cccc(CNc2nc(C(F)(F)F)nc3ccccc23)c1 | inactive: > 30 µM
S=c1sc2ccccc2n1CCc1ccncc1 | inactive: > 30 µM
O=C1CNC(=S)N1CCCn1ccnc1 | inactive: > 30 µM
COC(=O)[C@@H]1[C@H](CCc2ccccc2)NC(=O)N(Cc2ccccc2)[C@@H]1C | inactive: > 30 µM
O=C(Nc1ncc([N+](=O)[O-])s1)C1CC(=O)N(c2ccc(F)cc2)C1 (stereo unspecified) | inactive: > 30 µM
CCc1ccc(C2CC(c3ccc(Cl)cc3)n3nc(N)nc3N2)cc1 (stereo unspecified) | inactive: > 30 µM
CCSc1ccccc1C(=O)Nc1cccnc1 | inactive: > 30 µM
COc1ccccc1N1CC(C(=O)Nc2nc(C)cs2)CC1=O (stereo unspecified) | inactive: > 30 µM
CCOC(=O)CSc1nc(N)c(C#N)c(-c2cccs2)c1C#N | inactive: > 30 µM
O=C(CSc1ccccc1)Nc1ccc2c(c1)C(=O)NC2=O | inactive: > 30 µM
O=c1oc2cc(O)ccc2c2ccccc12 | inactive: > 30 µM
CCOc1ccc2nc(NC(=O)CSc3ccccc3)sc2c1 | inactive: > 30 µM
Nc1nonc1-n1nnc(C(=O)N/N=C/c2cccc(Cl)c2)c1-c1cccs1 | inactive: > 30 µM
CC1CCC(C(C)C)C2=C1C(C#N)(C#N)C(C#N)(C#N)C(c1ccccc1)N2 (stereo unspecified) | inactive: > 30 µM
O=[N+]([O-])c1c(NCCCO)cc(Sc2nc3ccccc3s2)c2nonc12 | inactive: > 30 µM
CC(C(=O)Nc1cccc(Br)c1)c1ccc([N+](=O)[O-])cc1 (stereo unspecified) | inactive: > 30 µM
CCCC1=C(C(=O)OCC)C(c2ccc(F)cc2)n2ncnc2N1 (stereo unspecified) | inactive: > 30 µM
COc1ccc(-c2nc(N)nc(N)n2)c(O)c1 | inactive: > 30 µM

SMILES | AC50
Cc1nc(NCC2CCCO2)nc2c1C(=O)CC(C)(C)C2 (stereo unspecified) | inactive: > 30 µM
C=CCn1cnc2c(c1=O)c1nc3ccccc3nc1n2/N=C/c1cc(OC)c(OC)c(OC)c1 | inactive: > 30 µM
CCCOc1cccc(-c2nnc(N)s2)c1 | inactive: > 30 µM
Cc1cccc(C)c1OCC(O)CNC(C)C (stereo unspecified) | inactive: > 30 µM
CCCCOc1cccc(-c2nnc(N)s2)c1 | inactive: > 30 µM
C/C(=N\NC(=O)c1nnn(-c2nonc2N)c1CN1CCCCCC1)c1ccc(Br)cc1 | inactive: > 30 µM
O=c1[nH]ncc2c3ccccc3n(Cc3ccccc3)c12 | inactive: > 30 µM
CC(C)C(=O)Nc1ccc2c(c1)C(=O)NC2=O | inactive: > 30 µM
Cc1sc2nc(SCC(=O)Nc3ccc(S(=O)(=O)NCCCC(=O)O)cc3)[nH]c(=O)c2c1C | inactive: > 30 µM
CC1=C(C(=O)OCc2ccccc2)C(c2cccc(Br)c2)NC(=O)N1 (stereo unspecified) | inactive: > 30 µM
Cc1ccc(N(CC(O)CN2CCCC2)S(=O)(=O)c2ccccc2)cc1 (stereo unspecified) | inactive: > 30 µM
CCOC(=O)c1cnn(C)c1NC(=O)c1ccc(Cl)cc1Cl | inactive: > 30 µM
N#Cc1c(N2CCCCC2)nc(N)c2c(N)nc(SCC(=O)O)cc12 | inactive: > 30 µM
Cc1ccc(N(CC(O)CN2CCCCC2)S(=O)(=O)c2ccccc2)cc1 (stereo unspecified) | inactive: > 30 µM
N#Cc1sc2nc3c(c(-c4ccco4)c2c1N)CCCC3 | inactive: > 30 µM
CNC(=O)c1ccsc1NC(=O)C1CCCN1S(=O)(=O)c1cccs1 (stereo unspecified) | inactive: > 30 µM
O=C1NC(=Nc2ccccc2)S/C1=C/c1cccs1 | inactive: > 30 µM
Nc1nc(Nc2ccc(Cl)cc2)n[nH]1 | inactive: > 30 µM
Cc1c(CCC(=O)O)c(=O)oc2cc(O)ccc12 | inactive: > 30 µM
Cc1ccc(/C=C2\C(=O)Nc3ccccc32)o1 | inactive: > 30 µM
O=C(N/N=C/c1cccnc1)c1cc2c(ccc3ccccc32)o1 | inactive: > 30 µM
O=C(CSc1nnc(-c2ccc(O)cc2)o1)Nc1ccccc1Br | inactive: > 30 µM
CCOc1ccc(-c2ncncc2-c2ccc(OC)c(OC)c2)c(O)c1 | inactive: > 30 µM
CCn1c(C)nc2cc(-c3nc4n(n3)Cc3ccccc3-4)ccc21 | active: 24.3 µM

SMILES | AC50
CCCCCCCCOC(=O)C1=C(C)Nc2nnnn2C1c1cccs1 (stereo unspecified) | inactive: > 30 µM
O=c1cc[nH]c2ccc(OC(F)(F)F)cc12 | inactive: > 30 µM
COCCCNC(=O)C(=O)NC1CCCCCC1 | inactive: > 30 µM
Fc1cccc(Nc2ncnc3sccc23)c1 | inactive: > 30 µM
Cc1ccc(S(=O)(=O)N2CCN(CC(=O)N/N=C\c3ccccn3)CC2)cc1 | inactive: > 30 µM
Clc1ccc(-c2noc(COc3ccccc3)n2)cc1 | inactive: > 30 µM
CC(C)OC(=O)CSc1nc(N)c(C#N)c(-c2ccco2)c1C#N | inactive: > 30 µM
COCCOC(=O)C1=C(C)Nc2ncnn2C1c1ccco1 (stereo unspecified) | inactive: > 30 µM
O=C(NC(=S)NCC1COc2ccccc2O1)c1ccccc1 (stereo unspecified) | inactive: > 30 µM
CCOC(=O)c1cc(C)[nH]c1C | inactive: > 30 µM
Cc1ccc2c(c1)Oc1ccc(NC(=O)CCl)cc1C(=O)N2 | inactive: > 30 µM
O=C(Nc1nnc(-c2ccco2)s1)C1CCCCC1 | inactive: > 30 µM
S=C(NCCC1=CCCCC1)Nc1ccccc1 | inactive: > 30 µM
CCOC(=O)c1nnn(-c2nonc2N)c1CN1CCCCCC1 | inactive: > 30 µM
Cc1cccc(OCC(=O)N2CCN(c3nnc(-c4ccccc4)c4ccccc34)CC2)c1 | inactive: > 30 µM
CCN(CC)Cc1c(O)ccc2c([N+](=O)[O-])c(C)n(-c3ccc(OC)cc3)c12 | inactive: > 30 µM
COc1ccc(-c2cc(C(=O)N3CCN(c4ccccc4OC)CC3)no2)cc1OC | inactive: > 30 µM
O=S(=O)(c1cccs1)N1CCN(c2ccnc3cc(Cl)ccc23)CC1 | inactive: > 30 µM
CC(=O)Nc1ccc(C(=O)OCC(=O)Nc2c(C)n(C)n(-c3ccccc3)c2=O)cc1 | inactive: > 30 µM
CCOc1cc(C(c2c(C)[nH][nH]c2=O)c2c(C)[nH][nH]c2=O)ccc1O | inactive: > 30 µM
Cc1ccc(-c2cc(-c3n[nH]c(=S)o3)c3ccccc3n2)cc1 | inactive: > 30 µM
CC(=O)Oc1ccc2ccc(=O)oc2c1 | inactive: > 30 µM
COc1ccc(COC(=O)C2=C(C)NC(=O)NC2c2ccc(O)cc2)cc1 (stereo unspecified) | inactive: > 30 µM
O=C(NCCCCCCNC(=O)OCCO)OCCO | inactive: > 30 µM

A few values from above:
For AC50, COCCCNC(=O)C(=O)NC1CCCCCC1 is entered as inactive: > 30 µM
For AC50, COc1ccc(COC(=O)C2=C(C)NC(=O)NC2c2ccc(O)cc2)cc1 (stereo unspecified) is entered as inactive: > 30 µM
For AC50, Fc1cccc(Nc2ncnc3sccc23)c1 is entered as inactive: > 30 µM
For AC50, CCOc1cc(C(c2c(C)[nH][nH]c2=O)c2c(C)[nH][nH]c2=O)ccc1O is entered as inactive: > 30 µM
For AC50, Cc1ccc(-c2cc(-c3n[nH]c(=S)o3)c3ccccc3n2)cc1 is entered as inactive: > 30 µM

Pulled by structure from above:
SMILES | AC50
O=C(Nc1ncc([N+](=O)[O-])s1)C1CC(=O)N(c2ccc(F)cc2)C1 (stereo unspecified) | inactive: > 30 µM
CN(Cc1nc2c(s1)CCCC2)C(=O)CCc1nnc(-c2ccccc2)o1 | inactive: > 30 µM

(continued)

SMILES | AC50
CC(=O)c1ccc(N=Nc2c(C)[nH][nH]c2=O)cc1 | inactive: > 30 µM
CCC(C)[C@H](NC(=O)NCc1ccc(Cl)cc1)C(=O)OC (stereo partly specified) | inactive: > 30 µM
COc1ccc(Nc2nc(N)c([N+](=O)[O-])c(N3CCN(C)CC3)n2)cc1 | inactive: > 30 µM
COCC(=O)Nc1ccc([N+](=O)[O-])cc1OC | inactive: > 30 µM
Cc1ccc(C(=O)N/N=c2\oc3ccccc3cc2C(N)=O)cc1 | inactive: > 30 µM
COc1ccccc1N=c1oc2cc(O)ccc2cc1C(=O)NCC1CCCO1 (stereo unspecified) | inactive: > 30 µM
CC(C)(C)OC(=O)N1CCC(NC(=O)c2[nH]cnc2C(=O)Nc2ccc(Cl)cc2)CC1 | inactive: > 30 µM
O=C(Nc1sc2c(c1C(=O)O)CCC2)c1cccs1 | inactive: > 30 µM
Cc1cc(NC(=O)c2cccc(S(=O)(=O)N3CC(c4ccccc4)CC3=O)c2)no1 (stereo unspecified) | inactive: > 30 µM
CN(C)/C=C/c1[nH]c(=O)[nH]c(=O)c1[N+](=O)[O-] | inactive: > 30 µM
Cc1c(C(=O)OC(C)C)[nH]c2c1C(=O)CCC2 | inactive: > 30 µM
Cc1ccc(OCc2nnnn2-c2ccccc2)cc1 | inactive: > 30 µM
Cc1ccc(S(=O)(=O)CCSc2n[nH]c(=O)n2-c2ccccc2)cc1 | inactive: > 30 µM
COc1cc(C(=O)NCC(=O)N/N=C\C(C)=C/c2ccccc2)cc(OC)c1OC | inactive: > 30 µM
Cc1ccnc(NC(=O)CCC(=O)N(CC(=O)NCc2ccc(F)cc2)Cc2ccco2)c1 | inactive: > 30 µM
Cc1cccc(NC(=O)CSCC(=O)OCc2ccccn2)c1 | inactive: > 30 µM
Cc1ccc(C(=O)N/C(=C/c2ccc(-c3cccc([N+](=O)[O-])c3)o2)C(=O)NC(C)C)cc1 | inactive: > 30 µM
COc1cccc(NC(=O)[C@@H]2CCCN2S(=O)(=O)c2cccc3cccnc23)c1 | inactive: > 30 µM
Oc1cc(O)cc(/C=C/c2ccc(O)c(O)c2)c1 | inactive: > 30 µM
Cc1cnc(NC(=O)C2CCCC2)s1 | inactive: > 30 µM
CCN1CCN(c2nc(Nc3cccc(OC)c3)nc(N)c2[N+](=O)[O-])CC1 | inactive: > 30 µM
CC(=O)Nc1c(C(=O)O)oc2ccc(Cl)cc12 | inactive: > 30 µM
COc1ccc(N=Cc2c(O)[nH]c3ccccc23)cc1OC | inactive: > 30 µM
O=C(O)CCSc1nnc(-c2ccncc2)n1-c1ccccc1 | inactive: > 30 µM
